# Percent effect of library compounds

Source: ChEMBL document CHEMBL3988442, “University of Dundee, Small-Polar-MMV Screening Library” (2021).

Each number is a percent effect as filed.
The controls that fix the scale are not given in the record; negative values are as filed.
The compounds are a random part of those screened.
Two or more numbers in one place are separate tests of the same structure; such repeats can differ widely.

Mtb cholesterol medium: 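Whole-cell growth test on Mycobacterium tuberculosis, read after 4 days in a medium based on cholesterol and the lipid DPPC; the read-out is not stated. Compounds at 50 µM. The record gives no direction; compounds that gave an IC50 in retests scored well above the rest, so higher reads as more growth inhibition. About 69,000 compounds were tested under these conditions; 0.54% (about 370) showed 50% or more at least once.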
Mtb glucose medium: 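Whole-cell growth test on Mycobacterium tuberculosis, read after 3 days in glucose-containing 7H9 medium; the read-out is not stated. Concentration: 50 µM. The record gives no direction; compounds that gave an IC50 in retests scored well above the rest, so higher reads as more growth inhibition. Of about 69,000 compounds tested this way, about 760 (1.1%) reached 50% or more in at least one test.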

compound	Mtb cholesterol medium	Mtb glucose medium
COCCn1cc(CC(=O)Nc2c(C)nn(C)c2C)c2ccccc21	-1.214%	7.797% and -5.65%
CSc1nc2ccsc2c(=O)n1CC(=O)N1CCCCC1C (stereo not given)	4.743%	6.913%
CC1(c2ccccc2)CCCN(C(=O)c2ccn3nnnc3c2)C1 (stereo not given)	-28.88%	-33.63%
Cc1ccc(CN(CCCn2ccnc2)Cc2c[nH]cn2)s1.O=C(O)CC(O)(CC(=O)O)C(=O)O	-10.02%	21.79%
N#Cc1ccc(CN2CCCN(C(=O)CCn3cncn3)CC2)cc1	10.88%	-3.424% and 2.122%
CC(NCc1ccccc1Cl)c1ccc(OCC(=O)NC2CC2)cc1 (stereo not given)	-1.567%	9.662%
CC(C)C(=O)N1CCN(CC(O)c2cc(Cl)ccc2Cl)CC1 (stereo not given)	-3.664%	15.04%
CCc1nc(NCCc2nc(C)c(C)s2)c2cnn(C)c2n1	8.481%	-0.7841% and -10.89%
Cc1nc(C)c(C(C)NC(=O)NCCNc2cccc(F)c2C#N)s1 (stereo not given)	3.45%	20.05%
Cc1cc(C)n(CC(=O)N2CCCC(c3cc4cccnc4[nH]3)C2)n1 (stereo not given)	15.57%	33.19%
Cc1ccccc1CS(=O)(=O)CC(=O)N(C)Cc1ccccc1F	18.53%	-3.613% and 15.85%
[H][C@@]12CCCC[C@]1(O)CCN(CC(N)=O)[C@H]2c1ccc2c(c1)OCO2	-21.02%	-3.964%
CC(C)c1ccc(C(CN)N2CCc3sccc3C2)cc1 (stereo not given)	76.08%	83.07%
O=C1COc2cc(C(=O)NS(=O)(=O)c3ccc(F)c(F)c3)ccc2N1	-6.555%	21.38%
NC(=O)c1cccc(NC(=O)CSc2ccc3c(c2)CCC3)c1	-12.11%	-10.23% and -5.983%
CC(C)(O)CNC(=O)c1sccc1Br	-3.185%	-1.9%
CCCn1cc(-c2cc(-c3c[nH]cn3)c(C#N)c(N)n2)c(C)n1	14.07%	-7.136%
O=c1cc(N2CCOCC2)cnn1CCc1ccc(F)cc1	6.197%	15.41%
O=C(O)C(F)(F)F.[H][C@@]12C[C@@H](c3nc(C)no3)CN(S(=O)(=O)c3cccnc3)[C@]1([H])CCO2	-0.9977%	29.35%
Cn1ccc2c(C(=O)NCC3(C(N)=O)CCOCC3)cccc21	-6.408% and 2.449%	-11.22%
CCCNc1nc(CS(=O)(=O)c2ccccc2)cs1	-1.049%	-17.82% and 36.56%
Cc1ccc(-c2nnc(C(C)N3CCc4cncnc4C3)o2)cc1 (stereo not given)	-22.24%	-33.14%
O=C(O)C(F)(F)F.[H][C@@]12OCCC[C@]1([H])N(C(=O)COC)C[C@H]2OCc1ccncc1	-14.56%	-9.29%
c1ccc2sc(N3CCCN(c4ncnc5c4CCNC5)CC3)nc2c1	19.05%	45.15%
O=C(CCNC(=O)c1ccccc1F)NCCNc1cccnc1	-17.52%	-54.18%
[H][C@]12C[C@@H](C(=O)NCc3cccs3)CO[C@@]1([H])CCN(CC)C2	-3.792%	25.1%
COCC(=O)N1CC[C@@H](N2CCOCC2)[C@@H]1Cc1cccnc1	2.21%	-6.959%
N#Cc1cccc(CNC(=O)NC2CCN(CC(F)F)CC2)c1	6.635%	-0.1934% and 2.261%
CC(C)CN1CCC2(CC1)CC(NS(C)(=O)=O)c1ccccc1O2.O=C(O)C(F)(F)F (stereo not given)	19.86%	9.743%
O=C(O)C(F)(F)F.O=C(c1cccnc1)N1CCC2(CC1)COCCN(c1ncccn1)C2	15.2%	-2.561%
CC(C)NC(=O)C1CCN(c2snc3ccccc23)CC1	14.62%	15.83%
Cc1cc(-c2ccc(C(C)N3CCCCC3)cc2)cnc1N (stereo not given)	-0.3749%	10.73% and 3.732%
CCC(=O)Nc1c(C)nn(COc2cccc(F)c2)c1C	-5.012%	12.83%
CC(C)OCc1ncn2c1CN(Cc1cccs1)CCC2.O=C(O)C(F)(F)F	-7.219%	1.707%
Cc1nc2c(c(N3CCCOCC3)n1)CCN(c1nccs1)CC2	21.97%	8.917%
Cc1nc(C)n(CC2CCCCN2CC(=O)Nc2nnc(C)s2)n1 (stereo not given)	-17.66%	6.336%
CSc1c(CC(=O)O)n(C)c2ccccc12	-38.01%	-8.398% and -16.15%
O=C(Cn1cc(-c2ccccc2)ncc1=O)NC1CCCCC1	6.593%	-21.12%
CC(C)(C)Cc1nnc(NCc2cccc(C#N)c2)o1	0.9507%	-28.52%
CC1CCN(c2ncc3c(n2)CN(c2ccc4c(c2)OCO4)C3=O)CC1	-21.52%	-23.06%
CN1CCN(c2cccc(Cl)c2CNCCS(C)(=O)=O)CC1	3.668%	0.1026% and 9.343%
Cc1ccc(C(=O)N2CCCC(C(=O)N3CCCCC3)C2)c(O)c1 (stereo not given)	-19.91%	-14.51%
CC(OCC1CC1)C(=O)NCCC(=O)Nc1ccccn1 (stereo not given)	7.919%	14.5%
O=C(NCCS(=O)(=O)N1CCN(c2ncccn2)CC1)C1CCCC1	-8.585%	14.58%
O=C(O)C(F)(F)F.O=C(O)C(F)(F)F.O=C(O)C(F)(F)F.c1ccc(CN2CC[C@]3(C[C@@H](Oc4ccccn4)CO3)C2)nc1	-21.51%	-16.88%
O=C(Cc1ccc(F)cc1)NCCNCC1CNc2ccnn2C1 (stereo not given)	8.35%	5.64%
[H][C@]12CC[C@]([H])(CN(CC(=O)N(C)C)C1)N(C/C=C/c1ccc(F)cc1)C2	14.8%	6.095%
CSCCC(=O)NCc1cc2n(n1)CCCN(C1CCCCC1)C2	-60.98%	-51.82%
COCCCNC(=O)CN(C)C(=O)c1cc(C)ccc1N(C)C(C)C	-5.334%	5.562%
COc1ccc(CNC(=O)c2nn(C)c3c2CS(=O)(=O)CC3)cc1OC	-2.166%	-5.966%
CCN(Cc1cc(F)c(OC)c(Cl)c1)Cc1noc(CC(C)C)n1	46.04%	59.58%
CC(=O)N1CCC(C(=O)c2cnn(-c3ccccc3)c2N)C1 (stereo not given)	-6.18% and -0.08591%	21.44%
Cc1occc(=O)c1OCc1noc(C(=O)NCC(C)C)n1	1.522%	-30.54%
Cc1ccc(OCC2CCCN(CC3CCOCC3)C2)cc1 (stereo not given)	-4.225%	10.23% and -7.071%
COc1cccc(CC(=O)NC2CCCc3cn[nH]c32)c1 (stereo not given)	-16.43%	-15.93%
O=C(c1coc2ccccc12)N1CCS(=O)(=O)CC1	5.44%	21.79%
CS(=O)(=O)CCCSCc1ccc(Br)c(F)c1	5.529%	9.709%
Cc1cc(NC(C)Cn2cccn2)n2nccc2n1 (stereo not given)	8.628%	11.89% and 12.34%
Cc1nccn1CCCNC(=O)C1CCCCN1Cc1ccncc1 (stereo not given)	4.793%	-11.81%
CC(C)Cn1cncc1CNC(=O)c1cccc(CC2CCNCC2)c1	4.075% and -11.44%	-27.8% and -2.961%
O=C(NCc1cnn2ccccc12)NC1CCCC1	2.95%	15.58%
c1ccc(-c2ncc3c(n2)C2(CCN(c4ncccn4)C2)COC3)cc1 (stereo not given)	-12.71%	8.33% and 4.263%
CCCC(C#N)NC(=O)CCCOc1cccc(C(C)=O)c1 (stereo not given)	-20.09%	-8.511% and 1.588%
[H][C@@]12CCN(C(=O)C3CC3)[C@]1([H])C(=O)N(c1ccc(C)cc1)C(=O)N2	19.36%	5.844% and -2.143%
C=C(C)COc1ccccc1CNCCc1cc(O)nc(C)n1	6.822%	25.89%
CN1C(=O)CO[C@H](c2ccc(NC(=O)c3cccnc3)cc2)[C@H]1CO	-20.94%	-8.045% and 0.5427%
CCN(CC)Cc1nc2c(o1)CN(C(=O)c1ccncc1F)C2	-13.42%	-11.38%
CCS(=O)(=O)N1CCN(C(=O)c2ccc(Cn3cc(Br)cn3)cc2)CC1	26.67%	21.5%
CCCc1ccc(S(=O)(=O)NC2(CC(N)=O)CCC2)cc1	-19.45%	20.68%
O=C1OCCN1c1cccc(CNS(=O)(=O)Cc2ccc(F)cc2)c1	-1.129%	6.531%
CN(C)c1ccc(C(=O)N2CCCC2c2ccc(Cl)cc2)cc1 (stereo not given)	1.374%	2.655% and -1.011%
CC(C)CN1CC(C(=O)NCCc2ccc(OC(F)F)cc2)CC1=O (stereo not given)	-37.08%	-26.29%
CCOc1ccc(Cl)c(C(=O)N2CCCC(c3cc(C)[nH]n3)C2)n1 (stereo not given)	10.08%	10.45%
COCC1CN(C(C)=O)CCN(c2cc(C)ncn2)C1 (stereo not given)	-8.005% and -17.05%	-35.88%
Cc1c(C(=O)N2CCC2(C)C)nnn1-c1cccc2cnccc12	-2.209%	-19.46% and -4.899%

Repeated from the top, 8 entries:

compound,Mtb cholesterol medium,Mtb glucose medium
COCCn1cc(CC(=O)Nc2c(C)nn(C)c2C)c2ccccc21,-1.214%,7.797% and -5.65%
CSc1nc2ccsc2c(=O)n1CC(=O)N1CCCCC1C (stereo not given),4.743%,6.913%
CC1(c2ccccc2)CCCN(C(=O)c2ccn3nnnc3c2)C1 (stereo not given),-28.88%,-33.63%
Cc1ccc(CN(CCCn2ccnc2)Cc2c[nH]cn2)s1.O=C(O)CC(O)(CC(=O)O)C(=O)O,-10.02%,21.79%
N#Cc1ccc(CN2CCCN(C(=O)CCn3cncn3)CC2)cc1,10.88%,-3.424% and 2.122%
CC(NCc1ccccc1Cl)c1ccc(OCC(=O)NC2CC2)cc1 (stereo not given),-1.567%,9.662%
CC(C)C(=O)N1CCN(CC(O)c2cc(Cl)ccc2Cl)CC1 (stereo not given),-3.664%,15.04%
CCc1nc(NCCc2nc(C)c(C)s2)c2cnn(C)c2n1,8.481%,-0.7841% and -10.89%